Assay results published in the supplement of paper PMC12823440, “Inhibitors supercharge kinase turnover through native proteolytic circuits” (Nature, 2025).
Counter-ions that a name gives are not always drawn. Some of the results follow. Hit calls seldom repeat between salt and free forms of one compound.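 Kinases were expressed as nanoluciferase fusions in K562 cells and luminescence was read every 4 h between 2 and 18 h as percent of control, DMSO set to 100% and a positive control to 0%. A time point counts as decreased when the signal drops significantly (2 sigma). The hit call is the authors' own, does not follow from the count of time points alone, and its rule is not shown.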

Amino acid sequences for entries named in this document (tags omitted).
UniProt Q9NYA1, whole entry: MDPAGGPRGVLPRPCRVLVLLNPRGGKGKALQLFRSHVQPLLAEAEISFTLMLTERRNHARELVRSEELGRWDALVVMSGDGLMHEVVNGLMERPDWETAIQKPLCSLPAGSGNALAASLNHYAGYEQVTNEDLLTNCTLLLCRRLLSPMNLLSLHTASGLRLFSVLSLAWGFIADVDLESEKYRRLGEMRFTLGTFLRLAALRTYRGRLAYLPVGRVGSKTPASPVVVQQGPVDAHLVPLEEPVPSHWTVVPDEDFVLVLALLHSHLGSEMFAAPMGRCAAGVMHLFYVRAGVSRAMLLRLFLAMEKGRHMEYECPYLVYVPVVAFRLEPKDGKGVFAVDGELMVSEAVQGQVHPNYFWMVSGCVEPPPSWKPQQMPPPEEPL

target: SPHK1 (UniProt Q9NYA1); experiment: kinase-Nluc reporter destabilization hit call (1 = scored as downregulated) (binary); higher = compound decreases kinase abundance; details: 2.5 µM; K562; 2-18 h

kinase-Nluc reporter destabilization hit call, inactive:
Cc1cccc(-c2[nH]c(CNc3ccccc3F)nc2-c2ccc3ncnn3c2)n1 [Vactosertib] 0, c1cc(-c2cnn3cc(-c4ccc(OCCN5CCCCC5)cc4)cnc23)ccn1 [Dorsomorphin (dihydrochloride)] 0, Oc1cccc(-c2nc(N3CCOCC3)c3oc4ncccc4c3n2)c1 [PI-103 (Hydrochloride)] 0, C=CC(=O)Nc1cc(Nc2nccc(-c3cn(C)c4ccccc34)n2)c(OC)cc1N(C)CCN(C)C [Osimertinib mesylate] 0, CNC(=O)c1cc(Oc2ccc(NC(=O)Nc3ccc(Cl)c(C(F)(F)F)c3)c(F)c2)ccn1 [Regorafenib (monohydrate)] 0, Cc1cccc(-c2[nH]c(CNc3ccccc3F)nc2-c2ccc3ncnn3c2)n1 [Vactosertib (Hydrochloride)] 0, COc1ccc(S(=O)(=O)Nc2ccccc2CN(C)C/C=C/c2ccc(Cl)cc2)cc1 [KN-92 (hydrochloride)] 0, CN(C)C(=O)c1cc2cnc(Nc3ccc(N4CCNCC4)cn3)nc2n1C1CCCC1 [Ribociclib hydrochloride] 0

same assay, conditions: 10 µM; K562; 2-18 h

kinase-Nluc reporter destabilization hit call, inactive:
CNC(=O)c1ccc(Nc2ncc(C(F)(F)F)c(NCc3nccnc3N(C)S(C)(=O)=O)n2)cc1 [Defactinib (hydrochloride)] 0, C#Cc1cccc(Nc2ncnc3cc4c(cc23)OCCOCCOCCO4)c1 [Icotinib (Hydrochloride)] 0, CNC(=O)c1ccc(Nc2ncc(C(F)(F)F)c(NCc3nccnc3N(C)S(C)(=O)=O)n2)cc1 [Defactinib] 0, N#CCNC(=O)c1ccc(-c2ccnc(Nc3ccc(N4CCOCC4)cc3)n2)cc1 [Momelotinib sulfate] 0, N#CCC1(n2cc(-c3ncnc4[nH]ccc34)cn2)CN(C2CCN(C(=O)c3ccnc(C(F)(F)F)c3F)CC2)C1 [Itacitinib] 0, CC(=O)Nc1cccc(-n2c(=O)n(C3CC3)c(=O)c3c(Nc4ccc(I)cc4F)n(C)c(=O)c(C)c32)c1 [Trametinib] 0, C[C@H](CCC(=O)NCCS(=O)(=O)O)[C@H]1CC[C@H]2[C@@H]3[C@@H](O)C[C@@H]4C[C@H](O)CC[C@]4(C)[C@H]3CC[C@]12C [Tauroursodeoxycholate (sodium)] 0, Cc1cccc(/C=N/Nc2cc(N3CCOCC3)nc(OCCc3ccccn3)n2)c1 [Apilimod (mesylate)] 0, N#CCNC(=O)c1ccc(-c2ccnc(Nc3ccc(N4CCOCC4)cc3)n2)cc1 [Momelotinib] 0, C[S+]([O-])c1ccc(-c2nc(-c3ccc(F)cc3)c(-c3ccncc3)[nH]2)cc1 (centres undefined) 0, COc1cc2c(cc1OC)-c1c(C)c3ccc(OC)c(OC)c3c[n+]1CC2 [Dehydrocorydaline (chloride)] 0, CCCC(=O)Nc1ncnc2c1ncn2[C@@H]1O[C@@H]2COP(=O)(O)O[C@H]2[C@H]1OC(=O)CCC [Bucladesine (sodium)] 0, COc1ccnc(C[S+]([O-])c2nc3cc(-n4cccc4)ccc3[nH]2)c1C (centres undefined) [Ilaprazole] 0, COC(=O)[C@H](CC(C)C)NC(=O)c1ccc(NC[C@@H](N)CS)cc1-c1cccc2ccccc12 0, COc1ncc(F)cc1CNc1ccc(Cc2c[nH]c3ncc(C)cc23)c(F)n1 0, C#Cc1cccc(Nc2ncnc3cc(OCCOC)c(OCCO)cc23)c1 [Desmethyl Erlotinib] 0, Cn1ncc(Cl)c1-c1cc(C(=O)N[C@H](CN)Cc2cccc(F)c2)sc1Cl [Afuresertib] 0, O=C(c1ccc(F)c(F)c1Nc1ccc(I)cc1F)N1CC(O)([C@@H]2CCCCN2)C1 [Cobimetinib (hemifumarate)] 0, COc1cc(/C=C/C(=O)O)ccc1O [Ferulic acid (sodium)] 0, CNc1ncc2cc(-c3ccc(-c4cccc(C)n4)cc3Cl)c(=O)n(C[C@H]3OC[C@H](N)CO3)c2n1 0, COC(=O)[C@H](CC(C)C)NC(=O)c1ccc(NC[C@@H](N)CS)cc1-c1cccc2ccccc12 [GGTI298 (Trifluoroacetate)] 0, Nc1cncc(-c2cn3ccnc3c(Nc3ccc(N4CCN(C5COC5)CC4)cc3)n2)n1 [Lanraplenib (succinate)] 0, CN(C)C(=O)c1cc2cnc(Nc3ccc(N4CCNCC4)cn3)nc2n1C1CCCC1 [Ribociclib] 0, CC(C)NC[C@@H](C(=O)N1CCN(c2ncnc3c2[C@H](C)C[C@H]3O)CC1)c1ccc(Cl)cc1 [Ipatasertib] 0, COc1cc(/C=C/C(=O)O)ccc1O [Ferulic acid] 0, CN(C)C/C=C/C(=O)Nc1cc2c(Nc3ccc(F)c(Cl)c3)ncnc2cc1O[C@H]1CCOC1 [Afatinib] 0
